Data from the supplement of paper PMC4604168 (melanoma cell lines).
This is one part of the list. Repeats are few or missing, and single values can be far off.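 The apoptosis fraction was the count of cleaved-PARP antibody-stained nuclei relative to all DNA-stained nuclei, imaged in 1,536-well plates. Screening doses were set so most cells survived, and baseline and induced cleaved-PARP levels vary greatly across cell lines.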

test system: SkMel28; assay: cleaved PARP positive nuclei fraction relative to DMSO control; melanoma cells; higher = more apoptosis; details: library dose: low library concentration; 72 h

Point of comparison: `O=c1[nH]nc(Sc2ncc([N+](=O)[O-])s2)n1-c1ccc2c(c1)OCCO2` + Cn1cnc2c(F)c(Nc3ccc(Br)cc3Cl)c(C(=O)NOCCO)cc21 [selumetinib] (first compound 0.2 µM, partner dose 0.015 µM), “cleaved PARP positive nuclei fraction” value 78.1%. Against it:
- Cc1cn(-c2cc(NC(=O)c3ccc(C)c(Nc4nccc(-c5cccnc5)n4)c3)cc(C(F)(F)F)c2)cn1 [nilotinib] + NC(=O)c1ccc(N(C(N)=O)c2c(F)cccc2F)nc1-c1ccc(F)cc1F [VX702] (first compound 0.2 µM, partner dose 0.4 µM) — higher, 149%
- CC[C@]1(O)C[C@H]2CN(CCc3c([nH]c4ccccc34)[C@@](C(=O)OC)(c3cc4c(cc3OC)N(C=O)[C@H]3[C@@](O)(C(=O)OC)[C@H](OC(C)=O)[C@]5(CC)C=CCN6CC[C@]43[C@@H]65)C2)C1 [vincristine] + C[C@@H](N)c1ccc(C(=O)Nc2ccnc3[nH]ccc23)cc1 [RKI983] (first compound 0.0001 µM, partner dose 0.4 µM) — higher, 138%
- Cc1cn(-c2cc(NC(=O)c3ccc(C)c(Nc4nccc(-c5cccnc5)n4)c3)cc(C(F)(F)F)c2)cn1 [nilotinib] + CC(C)C[C@H](NC(=O)[C@H](Cc1ccccc1)NC(=O)c1cnccn1)B(O)O [Bortezomib] (first compound 0.2 µM, partner dose 0.001 µM) — lower, 71%
- O=C(Nc1cc(C(F)(F)F)cc(C(F)(F)F)c1)c1cc(Cl)ccc1O + CC(=O)c1c(C)c2cnc(Nc3ccc(N4CCNCC4)cn3)nc2n(C2CCCC2)c1=O [palbociclib] (first compound 0.016 µM, partner dose 0.04 µM) — higher, 127%
- O=C(Nc1cc(C(F)(F)F)cc(C(F)(F)F)c1)c1cc(Cl)ccc1O + OCc1c[nH]c2ccccc12 [Indole-3-carbinol] (first compound 0.016 µM, partner dose 0.8 µM) — higher, 92%
- COc1cc([C@@H]2c3cc4c(cc3[C@@H](O[C@@H]3O[C@@H]5CO[C@@H](C)O[C@H]5[C@H](O)[C@H]3O)[C@H]3COC(=O)[C@H]23)OCO4)cc(OC)c1O [etoposide] + CS(=O)(=O)CCNCc1ccc(-c2ccc3ncnc(Nc4ccc(OCc5cccc(F)c5)c(Cl)c4)c3c2)o1 [lapatinib] (first compound 0.02 µM, partner dose 0.8 µM) — higher, 129%
- CCCCCCCCCCCCCCCCCCOP(=O)([O-])OC1CC[N+](C)(C)CC1 [Perifosine] + NC1(c2ccc(-c3nc4ccn5c(=O)[nH]nc5c4cc3-c3ccccc3)cc2)CCC1 [MK2206] (first compound 0.4 µM, partner dose 0.4 µM) — higher, 115%
- N#CC[C@H](C1CCCC1)n1cc(-c2ncnc3[nH]ccc23)cn1 [ruxolitinib] + COc1ccc(Cl)c(Nc2nc3ccccc3nc2NS(=O)(=O)c2cccc(NC(=O)C(C)(C)N)c2)c1 [XL147] (first compound 1 µM, partner dose 0.8 µM) — lower, 41.3%
- O=C(Nc1cc(C(F)(F)F)cc(C(F)(F)F)c1)c1cc(Cl)ccc1O + COc1ccc(C2=N[C@@H](c3ccc(Cl)cc3)[C@@H](c3ccc(Cl)cc3)N2C(=O)N2CCNC(=O)C2)c(OC(C)C)c1 [Nutlin-3] (first compound 0.016 µM, partner dose 0.1 µM) — higher, 253%
- Cc1cc(Nc2cc(N3CCN(C)CC3)nc(Sc3ccc(NC(=O)C4CC4)cc3)n2)n[nH]1 [Tozasertib] + CC[C@]1(O)C[C@H]2CN(CCc3c([nH]c4ccccc34)[C@@](C(=O)OC)(c3cc4c(cc3OC)N(C=O)[C@H]3[C@@](O)(C(=O)OC)[C@H](OC(C)=O)[C@]5(CC)C=CCN6CC[C@]43[C@@H]65)C2)C1 [vincristine] (first compound 0.006 µM, partner dose 0.0001 µM) — higher, 82.8%
- CC[C@]1(O)C[C@H]2CN(CCc3c([nH]c4ccccc34)[C@@](C(=O)OC)(c3cc4c(cc3OC)N(C=O)[C@H]3[C@@](O)(C(=O)OC)[C@H](OC(C)=O)[C@]5(CC)C=CCN6CC[C@]43[C@@H]65)C2)C1 [vincristine] + COc1ccc(Cl)c(Nc2nc3ccccc3nc2NS(=O)(=O)c2cccc(NC(=O)C(C)(C)N)c2)c1 [XL147] (first compound 0.0001 µM, partner dose 0.8 µM) — higher, 89.2%
- Cc1cn(-c2cc(NC(=O)c3ccc(C)c(Nc4nccc(-c5cccnc5)n4)c3)cc(C(F)(F)F)c2)cn1 [nilotinib] + COc1ccc(Cl)c(Nc2nc3ccccc3nc2NS(=O)(=O)c2cccc(NC(=O)C(C)(C)N)c2)c1 [XL147] (first compound 0.2 µM, partner dose 0.8 µM) — lower, 74.2%
- Cc1cc(Nc2cc(N3CCN(C)CC3)nc(Sc3ccc(NC(=O)C4CC4)cc3)n2)n[nH]1 [Tozasertib] + Nc1nc(F)nc2c1ncn2[C@@H]1O[C@H](CO)[C@@H](O)[C@@H]1O [fludarabine] (first compound 0.006 µM, partner dose 0.2 µM) — higher, 95.3%
- O=C(/C=C/c1cccnc1)NCCCCC1CCN(C(=O)c2ccccc2)CC1 + CCCS(=O)(=O)Nc1ccc(F)c(C(=O)c2c[nH]c3ncc(Cl)cc23)c1F [PLX4720] (first compound 0.01 µM, partner dose 0.08 µM) — lower, 34.1%
- O=C(/C=C/c1cccnc1)NCCCCC1CCN(C(=O)c2ccccc2)CC1 + CC(=O)c1c(C)c2cnc(Nc3ccc(N4CCNCC4)cn3)nc2n(C2CCCC2)c1=O [palbociclib] (first compound 0.01 µM, partner dose 0.04 µM) — higher, 166%
- CCCCCCCCCCCCCCCCCCOP(=O)([O-])OC1CC[N+](C)(C)CC1 [Perifosine] + CCCCCCCCc1ccc(CCC(N)(CO)CO)cc1 [fingolimod] (first compound 0.4 µM, partner dose 2 µM) — lower, 40.7%
- CC[C@]1(O)C[C@H]2CN(CCc3c([nH]c4ccccc34)[C@@](C(=O)OC)(c3cc4c(cc3OC)N(C=O)[C@H]3[C@@](O)(C(=O)OC)[C@H](OC(C)=O)[C@]5(CC)C=CCN6CC[C@]43[C@@H]65)C2)C1 [vincristine] + Nc1ncn([C@H]2C[C@H](O)[C@@H](CO)O2)c(=O)n1 [decitabine] (first compound 0.0001 µM, partner dose 0.1 µM) — higher, 130%
- O=c1[nH]nc(Sc2ncc([N+](=O)[O-])s2)n1-c1ccc2c(c1)OCCO2 + CC1(C)CCC(c2ccc(Cl)cc2)=C(CN2CCN(c3ccc(C(=O)NS(=O)(=O)c4ccc(N[C@H](CCN5CCOCC5)CSc5ccccc5)c(S(=O)(=O)C(F)(F)F)c4)cc3)CC2)C1 [ABT263] (first compound 0.2 µM, partner dose 0.4 µM) — higher, 89.8%
- O=c1[nH]nc(Sc2ncc([N+](=O)[O-])s2)n1-c1ccc2c(c1)OCCO2 + C=C(c1ccc(C(=O)O)cc1)c1cc2c(cc1C)C(C)(C)CCC2(C)C [Bexarotene] (first compound 0.2 µM, partner dose 2 µM) — higher, 95.6%
- CC[C@]1(O)C[C@H]2CN(CCc3c([nH]c4ccccc34)[C@@](C(=O)OC)(c3cc4c(cc3OC)N(C=O)[C@H]3[C@@](O)(C(=O)OC)[C@H](OC(C)=O)[C@]5(CC)C=CCN6CC[C@]43[C@@H]65)C2)C1 [vincristine] + COc1ccc(C2=N[C@@H](c3ccc(Cl)cc3)[C@@H](c3ccc(Cl)cc3)N2C(=O)N2CCNC(=O)C2)c(OC(C)C)c1 [Nutlin-3] (first compound 0.0001 µM, partner dose 0.1 µM) — higher, 113%
- COc1cc([C@@H]2c3cc4c(cc3[C@@H](O[C@@H]3O[C@@H]5CO[C@@H](C)O[C@H]5[C@H](O)[C@H]3O)[C@H]3COC(=O)[C@H]23)OCO4)cc(OC)c1O [etoposide] + C[C@@H](Oc1cc(-c2cnn(C3CCNCC3)c2)cnc1N)c1c(Cl)ccc(F)c1Cl [Crizotinib] (first compound 0.02 µM, partner dose 0.2 µM) — higher, 88.9%
- CC[C@]1(O)C[C@H]2CN(CCc3c([nH]c4ccccc34)[C@@](C(=O)OC)(c3cc4c(cc3OC)N(C=O)[C@H]3[C@@](O)(C(=O)OC)[C@H](OC(C)=O)[C@]5(CC)C=CCN6CC[C@]43[C@@H]65)C2)C1 [vincristine] + OCc1c[nH]c2ccccc12 [Indole-3-carbinol] (first compound 0.0001 µM, partner dose 0.8 µM) — higher, 130%
- CC[C@]1(O)C[C@H]2CN(CCc3c([nH]c4ccccc34)[C@@](C(=O)OC)(c3cc4c(cc3OC)N(C=O)[C@H]3[C@@](O)(C(=O)OC)[C@H](OC(C)=O)[C@]5(CC)C=CCN6CC[C@]43[C@@H]65)C2)C1 [vincristine] + CS(=O)(=O)c1ccc(C(=O)Nc2ccc(Cl)c(-c3ccccn3)c2)c(Cl)c1 [vismodegib] (first compound 0.0001 µM, partner dose 1 µM) — higher, 122%
- O=c1[nH]nc(Sc2ncc([N+](=O)[O-])s2)n1-c1ccc2c(c1)OCCO2 + Nc1ccn([C@@H]2O[C@H](CO)[C@@H](O)C2(F)F)c(=O)n1 [gemcitabine] (first compound 0.2 µM, partner dose 0.0004 µM) — higher, 97.1%
- CCCCCCCCCCCCCCCCCCOP(=O)([O-])OC1CC[N+](C)(C)CC1 [Perifosine] + Cc1cc(Nc2cc(N3CCN(C)CC3)nc(/C=C/c3ccccc3)n2)n[nH]1 [ENMD2076] (first compound 0.4 µM, partner dose 0.04 µM) — higher, 85.9%
